According to PubChem BioAssay AID1471 (National Center for Advancing Translational Sciences (NCATS), 2008):
“And” between values parts separate entries of the source, which are not always exact repeats. Equal values may be shown once. Out of some 230,000 compounds screened, about 310 (0.13%) were called active. The shares of active, inactive and inconclusive entries below differ from those in the screen. Calls come from the whole dose curve; as a rule, active = well fitted activation curve with a large enough effect; inconclusive = small, poorly fitted or top-dose-only effect; inactive = no such curve, though single readings can be large or run the other way. Where the call is inconclusive, the potency comes from a doubtful curve fit.

assay: qHTS Multiplex Assay to Identify Dual Action Probes in a Cell Model of Huntington: Cytoprotection (ATP); conditions: PC12 HTT-Q103 induced, ATP luminescence, 40 h; cytoprotection (ATP increase): at 56.4 µM (top of the series) unless noted; note: nearly all actives have a fitted effect of over 45% in size;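 for cytoprotection (ATP increase): toxic huntingtin expression switched on by the ecdysone agonist tebufenozide; % of control where 0% means no effect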
Procedure, shortened: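 PC12 cells with ecdysone-inducible HTT exon 1 Q103-GFP, induced with 100 nM tebufenozide and co-treated with library compounds in a dose series (1536-well, 1500 cells/well). Cytoprotection read as ATP content by ATPlite luminescence.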
Potency is the fitted concentration of half-maximal effect.

| Structure (SMILES) | Potency | cytoprotection (ATP increase) |
| --- | --- | --- |
| COCC(=O)N1CCC[C@@]2(CCN(c3ccccn3)C2)C1 | inconclusive: 0.794 µM [activator, full curve] |  |
| Cc1ccc2cc(CN(Cc3ccc4c(c3)OCO4)Cc3nnnn3Cc3ccco3)c(=O)[nH]c2c1C |  | inactive: 16.5% [at 1.9 µM] |
| COc1cc(-c2nnc(-c3ccccc3)o2)cc(OC)c1OC |  | inactive: -2.71% [at 10 µM] |
| COc1ccc(C(C#N)Nc2ccccc2)cc1 (stereo unspecified) | inactive |  |
| CC(=O)CCCCn1c(=O)c2c(ncn2C)n(C)c1=O | inconclusive: 0.0501 µM [activator, full curve, poor fit] |  |
| COc1cccc(CNc2ccc(C)c(Cl)c2)c1 | inactive |  |
| Cc1cc(O)c(NC(=O)c2cc([N+](=O)[O-])ccc2Cl)cc1C |  | inactive: -8.2% [at 10 µM] |
| CCOC(=O)c1sc2nc[nH]c(=O)c2c1C |  | inactive: 10.5% [at 10 µM] |
| CNC(=S)N/N=C/c1cn(CCOc2cccc(OC)c2)c2ccccc12 | inconclusive: 2.24 µM [activator, partial curve, poor fit] |  |
| Cc1oc(=O)c(NC(=O)c2ccc(Cl)cc2)cc1C(=O)c1ccccc1 | inconclusive: 22.4 µM [activator, single point] |  |
| Cc1sc2nc(CSCC(=O)Nc3ccc(N4CCOCC4)cc3)[nH]c(=O)c2c1C |  | inactive: -12.9% [at 10 µM] |
| CCN1CCN(c2cc(C)c3cc(NC(=O)c4ccccc4F)ccc3n2)CC1 | inconclusive: 1.26 µM [activator, single point] |  |
| CC(C)NC[C@H](O)COc1cccc2ccccc12 | inconclusive: 5.62 µM [activator, single point] |  |
| CC(C)(C)c1ccc(C(=O)N/C(=C\c2cccs2)C(=O)NCc2ccco2)cc1 | inactive |  |
| COc1cc(/C=N/NC(=O)c2cc(-c3c(C)nn(-c4ccccc4)c3C)n[nH]2)ccc1O | inconclusive: 15.8 µM [activator, partial curve, poor fit] |  |
| CSc1nnc(-c2ccccc2)o1 | inactive |  |
| CCOC(=O)C1CCCN(C(=O)c2cnn3c(C(F)F)cc(-c4ccc(C)cc4)nc23)C1 (stereo unspecified) | inconclusive: 31.6 µM [activator, single point] |  |
| COC(=O)c1sc(N2C(=O)C(O)=C(C(=O)c3ccc(C)o3)C2c2ccc(F)cc2)nc1C (stereo unspecified) |  | inactive: -9.91% [at 10 µM] |
| COc1ccc(O[C@H]2C=C[C@@H](c3ccccc3)O[C@@H]2CO/N=C(\C)CCN2CCc3nc(-c4ccccc4)c(-c4ccccc4)cc3C2)cc1 | inconclusive: 5.01 µM [activator, partial curve, poor fit] |  |
| O=C(COC(=O)/C=C/c1cccs1)NC(=O)Cc1ccccc1 |  | inactive: -2.15% [at 10 µM] |
| CC(=O)Nc1sc2c(c1CN1CCN(c3ccccn3)CC1)CCCC2 | inconclusive: 35.5 µM [activator, single point] |  |
| O=C(N/N=C/c1ccc2cccc(OCc3ccccc3)c2n1)c1ccc(Cl)cc1 | inconclusive: 5.01 µM [activator, single point] |  |

Retrieved by structure from above:

| Structure (SMILES) | Potency | cytoprotection (ATP increase) |
| --- | --- | --- |
| COc1cc(/C=N/NC(=O)c2cc(-c3c(C)nn(-c4ccccc4)c3C)n[nH]2)ccc1O | inconclusive: 15.8 µM [activator, partial curve, poor fit] |  |
| COc1ccc(C(C#N)Nc2ccccc2)cc1 (stereo unspecified) | inactive |  |
| CC(C)NC[C@H](O)COc1cccc2ccccc12 | inconclusive: 5.62 µM [activator, single point] |  |
| CCOC(=O)C1CCCN(C(=O)c2cnn3c(C(F)F)cc(-c4ccc(C)cc4)nc23)C1 (stereo unspecified) | inconclusive: 31.6 µM [activator, single point] |  |

The list goes on.

| Structure (SMILES) | Potency | cytoprotection (ATP increase) |
| --- | --- | --- |
| CC(=O)Nc1cccc(C(=O)N/N=C/c2ccc(F)cc2)c1 |  | inactive: -3.08% [at 10 µM] |
| COc1ccc(C(=O)N2CCC3(CC2)CN(C(=O)NC(C)C)C3)cc1 | inconclusive: 1 µM [activator, full curve, poor fit] |  |
| COc1cc(=O)[nH]c(=O)n1CC(=O)c1ccccc1 | inconclusive: 5.62 µM [activator, single point] |  |
| N[C@H](C(=O)O)C1C(C(=O)O)C1C(=O)O (stereo partly specified) | inactive |  |
| COc1cc(SC)ccc1C(=O)NCCN1CCOCC1 |  | inactive: 13.7% [at 10 µM] |
| O=C(O)c1ccc(S(=O)(=O)N(Cl)Cl)cc1 | inconclusive: 3.55 µM [activator, single point] |  |
| O=C1c2ccccc2C(=O)N1c1nc(-c2cccs2)cs1 | inconclusive: 35.5 µM [activator, single point] |  |
| Cc1ccc(/C(=C/CN2CCCC2)c2ccccn2)cc1 | inconclusive: 15.8 µM [activator, partial curve, poor fit] |  |
| O=C(c1ccncc1)N1CCC2(CC1)CN(c1ccc(-c3ccccc3)cc1)C2 | inconclusive: 5.62 µM [activator, partial curve] |  |
| CC(=O)Oc1ccc(/C=C\C(=O)C[C@@H]2O[C@@H](Oc3cc(OC(C)=O)c4c(c3)O[C@@H](c3ccc(OC(C)=O)cc3)CC4=O)[C@H](OC(C)=O)[C@H](OC(C)=O)[C@@H]2OC(C)=O)cc1 | inconclusive: 31.6 µM [activator, single point] |  |
| O=C(c1cccc(F)c1)N1CCC[C@@]2(CCN(Cc3nccs3)C2)C1 | inconclusive: 0.562 µM [activator, partial curve, poor fit] |  |
| CCCCn1c(-c2csc3ccccc23)n[nH]c1=S | inactive |  |
| Cc1ccc(C(c2nnnn2C2CCCC2)N2CCc3ccccc32)cc1 (stereo unspecified) | inconclusive: 0.891 µM [activator, single point] |  |
| O=C(NCc1ccco1)c1cccc(Nc2nc3ccc(Br)cc3[nH]2)c1 | inconclusive: 5.62 µM [activator, single point] |  |
| COc1ccccc1CNc1nc(-c2ccccc2CN(C)C)nc2ccccc12 | inactive |  |
| COc1ccc(CCN=Cc2c(C)[nH]n(-c3ccc([N+](=O)[O-])cc3)c2=O)cc1OC | inactive |  |
| O=C(O)CC1SC(=Nc2cccc(C(F)(F)F)c2)NC1=O (stereo unspecified) | inconclusive: 0.562 µM [activator, single point] |  |
| Cc1cc(O)cc(O)c1C(=O)OC1(C)C(=O)C=C2C=C(/C=C/C(=O)O)OC=C2C1=O (stereo unspecified) | inconclusive: 3.55 µM [activator, partial curve] |  |
| O=C(CSCc1ccccc1Cl)NNC(=S)Nc1ccccc1 | inactive |  |
| O=c1c(-c2ccccc2)nc2cnc(Oc3ccccc3)nc2n1C[C@H]1CCCO1 | inconclusive: 0.794 µM [activator, full curve, poor fit] |  |
| O=C1Cc2c([nH]c3ccc(Br)cc23)-c2ccccc2N1 | inconclusive: 316 nM [activator, partial curve] and active: 15.8 µM and inconclusive: 8.91 µM [activator, single point] |  |
| C/C=C/c1ccc(OC(C)[C@@H](O)c2ccc(O)c(OC)c2)c(OC)c1 (stereo partly specified) | inconclusive: 3.16 µM [activator, single point] |  |

| Structure (SMILES) | Potency | cytoprotection (ATP increase) |
| --- | --- | --- |
| CC(=O)OC[C@@H]1O[C@@H](O/N=C2/C[C@@H](O)[C@@H](O)[C@@H]3[C@@H]4C(=O)N(C[C@@H]5CCCO5)C(=O)[C@H]4CC[C@@H]23)[C@H](OC(C)=O)[C@H](OC(C)=O)[C@@H]1OC(C)=O |  | inactive: -2.21% [at 10 µM] |
| CN(C)CCn1c(CO)nc2c1c(=O)n(C)c(=O)n2C |  | inactive: -12.1% [at 10 µM] |
| COc1cccc(CC(NC(C)=O)C(=O)NC2CCN(c3nc(C)cc(C)c3C#N)CC2)c1 (stereo unspecified) | inconclusive: 1.26 µM [activator, single point] |  |
| CCOc1cc(CNc2ccc(CNc3ncn[nH]3)cc2)ccc1OCc1ccccc1 |  | inactive: 14.2% [at 10 µM] |
| O=C(c1cccc(F)c1)N1CCC[C@@]2(CCN(c3ncccn3)C2)C1 | inconclusive: 0.794 µM [activator, partial curve, poor fit] |  |
| Oc1ccc(-c2csc(-c3cccnc3)n2)c(O)c1 | inactive |  |
| CC(NC(=O)c1cccc(S(=O)(=O)N2CCN(C)CC2)c1)C1CC2CCC1C2 (stereo unspecified) | inactive |  |
| COc1ccc2[nH]cc(CCNc3ncncc3-c3c(C)noc3C)c2c1 | inconclusive: 25.1 µM [activator, single point] |  |
| CCOc1ccc(N=C(/C(C(=O)C(=O)N2CCOCC2)=C(/O)c2ccccc2)c2ccccc2)cc1 | inconclusive: 1 µM [activator, partial curve] |  |
| COc1ccc2c(c1)c(CC(=O)N1CCOCC1)c(C)n2C(=O)c1ccc(Cl)cc1 | inconclusive: 0.562 µM [activator, single point] |  |
| COc1ccc(CNC(=O)CSCc2cnn(-c3ccccc3)c2-n2cccc2)cc1 | inactive |  |
| O=C1/C(=C\c2cccs2)CCC/C1=C/c1cccs1 | inactive |  |
| COC(=O)N/N=C/C1=C[N+](=O)c2ccccc2[N+]1=O | inactive |  |
| CC(Sc1ccc2ccccc2n1)C(=O)O (stereo unspecified) | inactive |  |
| COc1ccc(-c2nc(-c3ccccc3)c(NC(C)(C)C)o2)cc1 | inconclusive: 35.5 µM [activator, partial curve, poor fit] and inconclusive: 4.47 µM [activator, full curve, poor fit] |  |
| CCN(CC)c1ccc(-c2nn3c(-c4n[nH]c5c4CCC5)nnc3s2)cc1 | inactive |  |
| COc1cc(C2NC(=O)NC(c3ccccc3)=C2C(C)=O)c(Cl)cc1OCC(=O)O (stereo unspecified) | inconclusive: 0.316 µM [activator, single point] |  |
| COc1ccc(OC2C(O)COC2/C=C/c2ccccc2)cc1 (stereo unspecified) | inconclusive: 1.26 µM [activator, single point] |  |
| Cc1cccc(C)c1OCCN1C(=O)NC(C)(c2ccccc2)C1=O (stereo unspecified) | inactive |  |
| CCOC(=O)C(CC)/C(C)=N\NC(=O)c1cccc(C)c1 (stereo unspecified) | inconclusive: 5.62 µM [activator, single point] |  |
| CC[C@H]1CN(C)[C@H]2Cc3c([nH]c4ccccc34)C(=O)C[C@H]1[C@H]2C(=O)OC |  | inactive: -8.94% [at 10 µM] |
| Nc1ncnc2nc(-c3ccc(C[P+](c4ccccc4)(c4ccccc4)c4ccccc4)cc3)[nH]c12 |  | inactive: -0.374% [at 10 µM] |
